Experimental findings from PubChem BioAssay (EPA / NIEHS) are described below.

Chains of the proteins cited; added tags and fusions are not shown.
UniProt P04637, whole entry, looked up: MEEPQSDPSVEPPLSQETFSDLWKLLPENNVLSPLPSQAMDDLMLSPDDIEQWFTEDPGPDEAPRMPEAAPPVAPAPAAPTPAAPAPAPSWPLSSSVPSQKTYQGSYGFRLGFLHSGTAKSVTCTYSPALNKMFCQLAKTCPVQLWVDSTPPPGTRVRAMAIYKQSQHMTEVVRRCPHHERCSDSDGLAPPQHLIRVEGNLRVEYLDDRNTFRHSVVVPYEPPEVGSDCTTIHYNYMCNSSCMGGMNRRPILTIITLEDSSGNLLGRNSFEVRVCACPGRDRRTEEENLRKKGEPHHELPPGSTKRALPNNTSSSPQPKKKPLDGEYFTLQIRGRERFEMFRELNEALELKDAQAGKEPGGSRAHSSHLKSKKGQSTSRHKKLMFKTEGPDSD

Only a part is listed here, and it is no random draw. Results filed as inconclusive are left out. Active and inactive are the calls of the source. Rule for the calls: active = hit-call score of the fitted dose curve at least 0.9, where 1 is the maximum; inconclusive = response in the unintended direction; inactive = score below 0.9.

In the assay the target is Cellular tumor antigen p53 (Homo sapiens) (UniProt P04637). In words: TOX21_p53_BLA_p3_ratio: Tox21 HCT-116 p53 Agonism Beta-lactamase Assay, Ratio, Phase 3 (AID 2283596). Put shortly: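 HCT116 p53-bla cells (4000/well) given compound in DMSO (217-fold dilution) after 5 h, incubated 16 h at 37C. CCF4-AM substrate 2 h at room temperature; 460/530 nm emission ratio, gain fitted against DMSO.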
In the case of `Oc1ccc(-c2ccc(O)cc2)cc1`, the result was inactive.

Turning to `O=C1c2c(O)cccc2C([C@@H]2O[C@H](CO)[C@@H](O)[C@H](O)[C@H]2O)c2cc(CO)cc(O)c21` (stereo partly drawn), the outcome was inactive.

Consider `CCO/C([O-])=N/c1c[n+](N2CCOCC2)no1`, for which the outcome was inactive.
